{
  "source": "PubChem BioAssay AID1347423",
  "about": "(Functional Genomics Laboratory (NCATS/FGL), 2020)",
  "note": "Screen size: about 52,000 sequences; about 210 (0.4%) were called active.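 The calls were made as follows: active = gene whose silencing raises cell survival under the drug, median off-target-corrected z-score across its silencing RNAs 2 or more; inactive = the rest.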 The list shows a part of the results.",
  "data": [
    {"experiment": "Resistance to Poly (ADP-Ribose) Polymerase inhibitor: Gene Identification via Genome-wide siRNA Screen", "conditions": "mouse BRCA2 R2336H ES cells, olaparib, CellTiter-Glo viability; stronger effect = higher value", "method_in_brief": "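Genome-wide siRNA screen (3 siRNAs/gene, 20 nM) in mouse ES cells carrying hypomorphic BRCA2 R2336H; olaparib 500 nM added 48 h post-transfection, CellTiter-Glo viability 72 h later. Normalized to plate-median negative control; MAD z-scores, gene median, seed-adjusted.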", "values": [
      {"sequence": "GGAGUUAGUGAGCUUUGAGTT against Zfp426", "z-score": "inactive: -0.787"},
      {"sequence": "GCUAUACAUCGAGUUUGUCTT against 2410014A08Rik", "z-score": "inactive: 0.00708"},
      {"sequence": "GGGAGAUGAGUUUUCUGAUTT against Cyp2c70", "z-score": "inactive: -0.974"},
      {"sequence": "GGUACAGAUGGUGUACAAUTT against 4930595M18Rik", "z-score": "inactive: -0.359"},
      {"sequence": "GGCAACAGUGCAUUCAAGUTT against Nptx2", "z-score": "inactive: -0.0161"},
      {"sequence": "CGCUUUCUAUACCAGAAGUTT against Lbx1h", "z-score": "inactive: 1.22"},
      {"sequence": "GGCUCAAGAAACUUAAGGATT against 4933411G06Rik", "z-score": "inactive: 0.389"},
      {"sequence": "GGCUCUAAGCUAAAUAAAGTT against Kbtbd4", "z-score": "inactive: 0.458"},
      {"sequence": "GGAAAGUAGUUGUUUUGAUTT against Rpa1", "z-score": "inactive: -3.32"},
      {"sequence": "GGAGACAUGGACUCCUAUATT against 4933425L06Rik", "z-score": "inactive: -2.78"},
      {"sequence": "GGGUUUGAGGCCUUCUAUGTT against Masp2", "z-score": "inactive: -2.13"},
      {"sequence": "GGAAUAUUGUCUUGAAUGATT against Tnfsf6", "z-score": "inactive: 0.501"},
      {"sequence": "GGAGUUGCCUCUGAAGACCTT against BC020535", "z-score": "inactive: -0.0385"},
      {"sequence": "GGAGAUAAAGAGGAACAUUTT against AI504432", "z-score": "inactive: -2.03"},
      {"sequence": "GGUCAAGGAAAAAACACUUTT against Nfs1", "z-score": "inactive: -1.78"},
      {"sequence": "GGAAGCAGAAGCUAAAGUGTT against Ubap1", "z-score": "inactive: -0.522"},
      {"sequence": "GGGAGUAUGGAAAACUGCATT against Bin3", "z-score": "inactive: 0.489"},
      {"sequence": "GGCUCCAACUGCUUUCAUCTT against 6330408A02Rik", "z-score": "inactive: -0.145"},
      {"sequence": "GCUGGCUAGAAUCUUACCCTT against 0610008A10Rik", "z-score": "inactive: -0.258"},
      {"sequence": "GGAGUAGCUGAAUCUGAAGTT against Atp5e", "z-score": "inactive: -2.47"},
      {"sequence": "GGAUAUCUCGGAAAUAGAGTT against Tjp2", "z-score": "inactive: 0.451"},
      {"sequence": "GCCAGCGUACUCUUUUUAUTT against Ocln", "z-score": "inactive: 0.932"},
      {"sequence": "GGGACAUAUCUGAAGCAAGTT against Rps26", "z-score": "inactive: -3.07"},
      {"sequence": "GGAAAUUCUUUGUGAGUUUTT against 2810406C15Rik", "z-score": "inactive: 0.313"},
      {"sequence": "GGUUUACAGUAAUUACCAATT against Tex12", "z-score": "inactive: -0.837"},
      {"sequence": "GGUUGCUCUUCUUAAGGAGTT against Scye1", "z-score": "inactive: -1.32"},
      {"sequence": "GGAAAAUCUUGACUUCAUCTT against BC018472", "z-score": "inactive: 0.221"},
      {"sequence": "GGAGAGAGGGAAAAAAGAATT against Sox4", "z-score": "inactive: -0.497"},
      {"sequence": "GCCAGCCUAAAAAAGAUACTT against Eef1g", "z-score": "inactive: 0.801"},
      {"sequence": "GGAGAUAGCAAACCUUAAGTT against C130098D09", "z-score": "inactive: -1.78"},
      {"sequence": "GGGUGAGAGGAAACAGAAATT against 2810012L14Rik", "z-score": "inactive: 1.03"},
      {"sequence": "CAGGCAAAAUAUCGAACAATT against Pstpip1", "z-score": "inactive: 0.129"},
      {"sequence": "CGUUAUGCGGUUUUUCCAUTT against Ndufa6", "z-score": "inactive: -0.243"},
      {"sequence": "AGAAGAGUUACCACUAUGUTT against D14Ertd668e", "z-score": "inactive: -0.147"},
      {"sequence": "GGCUCGCCUGAGAAAGUCUTT against Nudt7", "z-score": "inactive: -0.88"},
      {"sequence": "GGACCAGCACCAUUUCCUATT against Tce4", "z-score": "inactive: -0.603"},
      {"sequence": "GGAUGAUGACAUCUUCAACTT against B4galt2", "z-score": "inactive: -0.101"},
      {"sequence": "CCAAUUCCUGGGUGCACACTT against Olfr309", "z-score": "inactive: 1.26"},
      {"sequence": "GGCACCAGAUGUUUGUAGCTT against BC055107", "z-score": "inactive: 1.78"},
      {"sequence": "CCUAAUAAGCUUUAAAGGATT against A530065E19Rik", "z-score": "inactive: 0.307"},
      {"sequence": "CCUACUAAAGGUGAUCUGATT against BB128963", "z-score": "inactive: -0.194"},
      {"sequence": "GCUGAUUUCAUUGCAUCCGTT against Olfr483", "z-score": "inactive: 2.01"},
      {"sequence": "GCCGAAGUGUUCUACGAUGTT against BC024814", "z-score": "inactive: 0.331"},
      {"sequence": "CGUGUACUCUUCUUGUACATT against Ranbp17", "z-score": "inactive: 0.202"},
      {"sequence": "GGUGUAUAUCAACAUCAGUTT against Pps", "z-score": "inactive: 0.593"},
      {"sequence": "GCUUAAGUUAUGGAUAGCATT against Pex11b", "z-score": "inactive: -1.1"},
      {"sequence": "GGAAUACUCCAGUAUCUCCTT against 9130401M01Rik", "z-score": "inactive: -0.0555"},
      {"sequence": "GGUGACUUUGAAAAAGCCATT against AW049829", "z-score": "inactive: 0.573"},
      {"sequence": "GCUCAUGCAGAAAUGUUUUTT against BC021438", "z-score": "inactive: -0.896"},
      {"sequence": "GGUUCAUCUGAAAACAGGUTT against Osgepl1", "z-score": "inactive: -0.509"},
      {"sequence": "CCAAUAGUUGUGGACAUGATT against Crisp1", "z-score": "inactive: 0.606"},
      {"sequence": "CCUUGAAUCAAUUGAUAGUTT against Lyplal1", "z-score": "inactive: -0.191"},
      {"sequence": "GGAAGAGUUAGCUUAGUAUTT against Ypel1", "z-score": "inactive: -0.111"},
      {"sequence": "GGACAAGGAUAGUAGUAAGTT against Adprt1", "z-score": "active: 3.83"},
      {"sequence": "GGAAAGGACAAAAGAAAGATT against Irx3", "z-score": "inactive: -0.688"},
      {"sequence": "GCAGUUUGACAACUUAAACTT against Mtus1", "z-score": "inactive: 0.96"},
      {"sequence": "GCCUUUAGUUGGUUUAGUATT against 6030490I01Rik", "z-score": "inactive: 2.86"},
      {"sequence": "GGAAACACAGCAAUAGAUUTT against Cplx1", "z-score": "inactive: 0.751"},
      {"sequence": "GCCUCCUACUGGUUCCAAATT against Commd7", "z-score": "inactive: -1.22"},
      {"sequence": "GGCAGAUCAGAAUUGAAUUTT against Fgd6", "z-score": "inactive: -0.0476"},
      {"sequence": "GGAAAACAAGACUUCAAUCTT against Gypa", "z-score": "inactive: -0.216"},
      {"sequence": "GCAGGCAACUCGAAUGAGATT against 2610024A01Rik", "z-score": "inactive: -1.77"},
      {"sequence": "GGAGUUGAUAAUAUGGUGGTT against Uck1", "z-score": "inactive: 0.421"},
      {"sequence": "GGAGCAAGAGUCUAAAUGATT against 1700021K19Rik", "z-score": "inactive: -0.974"},
      {"sequence": "GCCUAACAUUAACAUGUAATT against 1500001A10Rik", "z-score": "inactive: 0.2"},
      {"sequence": "GGCCAGUGUGUGGUCUAAGTT against Cd1d2", "z-score": "inactive: -0.9"}
    ]}
  ]
}
